Primary screen of a compound library

By UniProt entry, the sequences of proteins in these tests, tags left out. Residues count along the entry.
UniProt A4I591, 1-473: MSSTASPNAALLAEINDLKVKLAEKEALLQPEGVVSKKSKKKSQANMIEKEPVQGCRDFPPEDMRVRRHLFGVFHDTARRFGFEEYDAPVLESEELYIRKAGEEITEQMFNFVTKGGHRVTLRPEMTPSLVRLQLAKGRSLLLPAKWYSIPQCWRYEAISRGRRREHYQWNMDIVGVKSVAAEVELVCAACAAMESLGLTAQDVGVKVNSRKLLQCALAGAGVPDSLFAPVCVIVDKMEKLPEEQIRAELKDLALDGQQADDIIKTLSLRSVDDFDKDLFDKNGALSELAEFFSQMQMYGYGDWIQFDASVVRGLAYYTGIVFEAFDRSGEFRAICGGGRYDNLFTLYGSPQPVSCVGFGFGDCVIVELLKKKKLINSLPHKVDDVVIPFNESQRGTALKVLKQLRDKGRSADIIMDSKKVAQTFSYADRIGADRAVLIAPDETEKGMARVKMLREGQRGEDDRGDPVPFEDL

Results are given as percent effect. The controls that fix the scale are not given in the record; negative values are as filed. This is an unselected part of the compounds tested. Two or more numbers in one place are separate tests of the same structure; such repeats can differ widely. A dash means the value is not listed here; it may have been measured.

LiHisRS: 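Enzyme assay of histidyl-tRNA synthetase; the read-out is not stated. Target: Histidine-tRNA ligase, Leishmania infantum (UniProt A4I591). Tested at 30 µM. The record gives no direction; compounds that gave an IC50 in retests scored well above the rest, so higher reads as stronger inhibition. The assay is labelled LdHisRS but filed under L. infantum. Of about 69,000 compounds tested this way, about 410 (0.6%) reached 50% or more in at least one test.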
Toxoplasma: 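Assay of Toxoplasma gondii numbers, read through their beta-galactosidase reporter with a colour substrate. Tested at 10 µM. Higher reads as fewer parasites (inferred from which compounds were picked for retests). About 67,000 compounds were tested under these conditions; 0.38% (about 260) showed 50% or more at least once.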

compound | LiHisRS | Toxoplasma
Cc1ccc(C(O)CNC(=O)NCc2nc(C)cs2)cc1 (centres unmarked) | 11.54% | -4.27%
Cc1occc1C(=O)N1CCc2c(CNc3ncccn3)cncc2C1.Cl | - | -2.342%
CCOc1nn(CC)cc1-c1nnc(SCc2cccnc2)n1C | 23.66% | 6.169%
COCc1nc2n(n1)CCCC2Nc1nc(C)ns1 (centres unmarked) | 9.677% | -
O=C(O)C(F)(F)F.O=C(O)C(F)(F)F.[H][C@@]12CCN(Cc3cnn(C)c3)[C@@]1([H])CCN2Cc1ccc2c(c1)OCO2 | - | -4.574%
Cc1ccccc1C(=O)NC(C)CN1CCOC1=O (centres unmarked) | 11.67% | 25.63%
CNC(=O)[C@@]12CCC3(CCN(C(C)=O)CC3)[C@@H]1CN(S(C)(=O)=O)C2 | 16.98% | -
COCc1nc(C(=O)N2CCN(Cc3cc(C)on3)CC2)cs1 | 15.08% | 8.713%
COC(=O)CNC(=O)c1c(-n2cnnn2)sc2c1CCCC2 | 2.5% | -11.25%
CCOc1cc(C)nc(N2CCN(C(=O)c3cscn3)CC2)n1 | 14.55% | -9.732%
CN(CC(=O)N1CCCC1)C(=O)Cc1csc(-c2ncccn2)n1 | 14.29% | -29.26%
COc1cccc(C2C3=C(COC3=O)Nc3[nH]nc(C)c32)c1O (centres unmarked) | 23.33% | 1.403%
CC(C)c1nc(C(=O)N2C[C@H](C(C)C)[C@@H](N)C2)cs1 | 17.58% | -3.107%
Cc1nn(-c2ccccc2)c(C)c1CNC(=O)NC1CC(=O)N(C)C1 (centres unmarked) | -4% | -8.783%
CC(=O)NC1CCCN(C(=O)NCc2cccnc2N(C)C)C1 (centres unmarked) | 20.27% | 9.594%
Cc1nn(C)c(C)c1NC(=O)CN1CCc2c(nc(C(C)C)n2C)C1 | 15.38% | 3.347%
CCCN1CCC(c2nc3ccc(-c4ccccc4)cn3n2)CC1 | 15.84% | -
CNC(=O)C1(c2cnccn2)CCCN1C(=O)c1ncccc1C (centres unmarked) | 9.375% | -13.35%
O=C(CCCOc1ccccc1)N1CCCC1Cn1cccn1 (centres unmarked) | 6.25% | -5.111%
CC(C)c1nc(CNC2CCN(C(=O)OC(C)(C)C)CC2)cs1 | 6.122% | -3.285%
COCc1noc(-c2ccc(N3CCC[C@H]3CO)nc2)n1 | 2.778% | -12.67%
Cc1nc(CN(C)C(=O)CNC(=O)c2ccc(C#N)cc2)cs1 | 24.73% | 1.202%
COCCNC(=O)[C@H]1CN(c2ncccn2)C[C@H]2OCC[C@@H]12 | 5.882% | -
CN(C)c1nc(NCCc2ccnn2C)ncc1F | 8.197% | -18.68%
Cc1nccn1CCC1CCN(c2ccncn2)CC1 | 15.83% | -12.46%
COCCN(C(=O)c1ccc(OC)cc1)c1ccc(C#N)cc1 | -1.667% | 4.176%
Cc1nn(C)cc1C(=O)N1CCCN(C2Cc3ccccc3C2)CC1 | 16.67% | -1.19%
Cc1nn(C)c(C)c1CC(=O)N1CCCC(n2cccn2)C1 (centres unmarked) | 13.64% | -0.6905%
O=C1NCC2(CCCN(C(=O)Cn3nc4ccccc4n3)CC2)O1 (centres unmarked) | 6.452% | -30.84%
O=C(Nc1cnn(CC(F)F)c1)c1cccc(-n2cnnn2)c1 | 21.35% | -7.687%
CCCSc1nn(CCN(C)C)c2nc3sc(C)c(CC)c3c(=O)n12 | 22.5% | -4.369%
Cc1cc(CN2CCC3(CC2)C(=O)NCCN3CC2CC2)oc1C | 11.93% | -2.294%
COc1ccccc1C1CNCCN1C(C)=O (centres unmarked) | 7.092% | 6.977%
COc1ccc(CN2CC[C@@H]3[C@H]2CCC(=O)N3c2cnn(C)c2)cc1 | 20.83% | -
CC(Cn1ccnc1)NC(=O)NCc1ccc2c(c1)OCCO2 (centres unmarked) | 10.71% | -19.42%
CN1CCN(C[C@@H]2CN(C(=O)CC3CCCCC3)C[C@@H]2CO)CC1 | 20% | 5.681%
COc1ccc(CN(C(=O)C(C)SC)c2cnn(C)c2)c(OC)c1 (centres unmarked) | 6.494% | 3.426%
Cn1cncc1CN1CCC2(CCCN2c2ncccn2)CC1 | 9.402% | -
[H][C@]12CNC[C@@]1(C(=O)N(C)Cc1cnc(NC)nc1)CN(C(=O)C1CC1)C2 | - | -10.45%
CCC(Nc1nc(C)nc2onc(C)c12)c1nc(C)c(C)s1 (centres unmarked) | 20.83% | -1.85%
CNC(=O)[C@@]12CCO[C@@H]1CCN(S(=O)(=O)c1ccccc1C)C2 | 5% | -
[H][C@@]12CCC(=O)N(CCNC)[C@]1([H])CCN(c1ncc(F)cn1)C2 | - | -2.741%
OC1(CN2CCCCC2)CCN(c2cccc(C(F)(F)F)n2)C1 (centres unmarked) | 6.993% | -14.71%
COc1cccc(CN2CC[C@H]3[C@@H](C2)[C@H](c2ccsc2)CN3C(C)=O)c1 | 28.57% | -
Cc1cc(NC(=O)C(C)Cn2cncn2)no1 (centres unmarked) | 23.38% and 0% | 16.05% and -17.34%
Cc1noc(C)c1CN1CC2(CCCCN2C)CC1=O (centres unmarked) | 0% | -
O=C(NC1CCN(C(=O)C2CCCCC2)C1)c1ccncc1Cl (centres unmarked) | 7.143% | 1.248%
Cc1ccc2cc(C(=O)N3CCN(C(=O)c4ccoc4)CC3)[nH]c2c1 | 25.53% | -6.542%
COc1ccc(F)c(CNC2CCCc3nc(N(C)C)ncc32)c1 (centres unmarked) | 5.594% | 12.25%
COc1cccc(S(=O)(=O)NC2CNC(=O)C2)c1 (centres unmarked) | 23.08% | 2.627%
Cc1ccccc1C(CNc1ncnc2c1CCNC2)N(C)C (centres unmarked) | 26.6% | 3.721%
CC(=O)N1CCC2(CC1)CN(C(C)C)c1ccc(F)cc12 | 11.88% | 25.13%
CN(C)Cc1cn(-c2ccccc2C(=O)NCCC2CCCN2C)cn1 (centres unmarked) | 13.99% | 8.2%
CCc1cc(CN(C)C(=O)c2cnn[nH]2)on1 | 24.29% | -15.36%
CS(=O)(=O)N1CCCN(CCCSCc2ccccc2)CC1 | 2.618% | -1.685%
CO[C@@H]1CCN(C(=O)Cc2cccc(F)c2)[C@H]1Cc1cccnc1.O=C(O)C(F)(F)F | - | -2.479%
N#Cc1cc(C#N)c(SCC(=O)NCc2ccc(F)cc2)nc1N | -8.85% | 13.62%
CC(=O)N1CCN(C(=O)c2ccc(Sc3ccccn3)cc2)CC1 | 16.48% | 5.551%
CC(C)CNC(=O)CNc1c(NCc2ccco2)c(=O)c1=O | -2.5% | 16.28%
CC(C)NC(=O)NC[C@H]1OC[C@@H](NCc2cccs2)[C@@H]1O | -5.556% | 8.128%
Cc1nc(C2CCNC2)nc2c1CCC(=O)N2C (centres unmarked) | 5.797% | -
O=C(O)C(F)(F)F.[H][C@]12CCN(C(=O)c3cnccn3)C[C@@]1([H])[C@H](CN1CCCC1)OC2 | - | 5.179%
Cc1cnn(CC(C)NCc2nc(-c3cccs3)no2)c1 (centres unmarked) | 11.4% | -8.273%
Cc1nc(CN2CCN(CC3CCOC3)Cc3cccnc32)cs1.O=C(O)C(F)(F)F.O=C(O)C(F)(F)F.O=C(O)C(F)(F)F (centres unmarked) | - | 3.386%
CN1C[C@@H](c2cccc(F)c2)[C@H]2[C@H]1CCCCCN2C(=O)C1CC1 | 8.696% | -
Cc1nsc(NC2CCOC3(CCCC3)C2)n1 (centres unmarked) | 2.857% | 16.88%
Cl.O=C(NC[C@@]1(COc2cnccn2)C[C@@H](O)[C@@H](O)C1)C1CC1 | - | -5.181%
CNc1cc(C(=O)N2CCOC(C(=O)NC3CCCC3)C2)ccn1 (centres unmarked) | 7.092% | -10.92%
CCCNC(=O)c1ccc2c(c1)C(=O)N(CC(C)C)C2=O | 0% | -1.385%
Cn1c(Cn2cccn2)nnc1C1CCN(Cc2cccnc2N)CC1 | 2.885% | 2.85%
O=C(C1CCOCC1)N1CCN2C(=O)N(Cc3ccc(F)cc3)C[C@H]2C1 | 19.44% | -
Cn1ccnc1CN1CCC2(CC1)CC(Oc1cccnc1)C2.O=C(O)C(F)(F)F.O=C(O)C(F)(F)F | - | 1.496%
Cc1cccc(C(=O)N2CCCCC2c2nc(C)cs2)n1 (centres unmarked) | 15.38% | 1.99%
Cn1nc(Cn2cccn2)c2c1CN(Cc1ccsc1)C2.O=C(O)C(F)(F)F | - | -4.132%
Cc1cc(CN(C)C(=O)c2ccc(OCC(F)(F)F)nc2)no1 | 5.172% | 0.5392%
O=C(O)C(F)(F)F.[H][C@@]12CN(CC3CCOC3)C[C@@]1([H])N(Cc1cccc(F)c1)C(=O)CO2 (some centres unmarked) | - | -3.672%
Cc1cnn(CC2CCCN2C(=O)c2ccc(F)cc2Cl)c1 (centres unmarked) | 15.38% | -0.03339%
CN(Cc1cnn(C)c1)C(=O)Nc1cccnc1-n1cccn1 | 30.67% | -3.101%
Cc1nnc(CN2CCC3(CCC(=O)N([C@H]4CC[C@H](O)CC4)C3)CC2)o1 | 24.18% | 0.02959%
c1ccc2c(N3CCSCC3)cnnc2c1 | 20.59% | -2.996%
Cn1nccc1CN1CCOC(c2ccc(-c3cncnc3)cn2)C1 (centres unmarked) | 13.99% | -32.92%
CC(C)c1nc(CNC2CCCN(c3cccnn3)C2)no1 (centres unmarked) | 33.33% | 0.6554%

The first 8 entries again:

- Cc1ccc(C(O)CNC(=O)NCc2nc(C)cs2)cc1 (centres unmarked) : LiHisRS: 11.54%; Toxoplasma: -4.27%
- Cc1occc1C(=O)N1CCc2c(CNc3ncccn3)cncc2C1.Cl : Toxoplasma: -2.342%
- CCOc1nn(CC)cc1-c1nnc(SCc2cccnc2)n1C : LiHisRS: 23.66%; Toxoplasma: 6.169%
- COCc1nc2n(n1)CCCC2Nc1nc(C)ns1 (centres unmarked) : LiHisRS: 9.677%
- O=C(O)C(F)(F)F.O=C(O)C(F)(F)F.[H][C@@]12CCN(Cc3cnn(C)c3)[C@@]1([H])CCN2Cc1ccc2c(c1)OCO2 : Toxoplasma: -4.574%
- Cc1ccccc1C(=O)NC(C)CN1CCOC1=O (centres unmarked) : LiHisRS: 11.67%; Toxoplasma: 25.63%
- CNC(=O)[C@@]12CCC3(CCN(C(C)=O)CC3)[C@@H]1CN(S(C)(=O)=O)C2 : LiHisRS: 16.98%
- COCc1nc(C(=O)N2CCN(Cc3cc(C)on3)CC2)cs1 : LiHisRS: 15.08%; Toxoplasma: 8.713%

Measurements from “University of Dundee, Small-Polar-MMV Screening Library” (2021), ChEMBL document CHEMBL3988442.